The values that follow come from the supplement of paper PMC8256030.

“And” between values parts separate entries of the source, which are not always exact repeats. Equal entries are not always repeated. The list shows a part of the results. Repeats in this data set agree poorly, so a single value says little.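 HEK293T cells were given each compound shortly before transfection with a reporter in which red mCherry is followed by the SARS-CoV-2 frameshift element and then GFP in the −1 frame, so GFP appears only after frameshifting.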

The test concerns HEK293T. Kind of test: percent viability (nuclei count) relative to control; higher = more viable cells. The following applies: 10 µM; 24 h.
On to `CC(/C=C1\SC(=S)N(CC(=O)O)C1=O)=C\c1ccccc1` [epalrestat], for which the percent viability was determined as 183%. Turning to `OCCOc1ccc(/C(=C(/CCCl)c2ccccc2)c2ccccc2)cc1` [ospemifene], the percent viability is 149%. Regarding `Cc1cc(-c2ccccc2)nnc1NCCN1CCOCC1` [minaprine], the percent viability was 147%.

For the compound `NS(=O)(=O)c1cc2c(cc1Cl)NCNS2(=O)=O` [hydrochlorothiazide], the percent viability was 172%.

On to `CCCSc1ccc2[nH]c(NC(=O)OC)nc2c1` [albendazole], for which the percent viability was 44.1% and 20%. The result for `COc1ccc2nc(NC(=O)Nc3ccccc3)sc2c1` [frentizole] reads 103%. Consider `CC(=O)O[C@H]1C[C@H](O[C@H]2[C@@H](O)C[C@H](O[C@H]3[C@@H](O)C[C@H](O[C@H]4CC[C@@]5(C)[C@H](CC[C@@H]6[C@@H]5CC[C@]5(C)[C@@H](C7=CC(=O)OC7)CC[C@]65O)C4)O[C@@H]3C)O[C@@H]2C)O[C@H](C)[C@H]1O` [acetyldigitoxin], for which the percent viability was 15.4%. Next, `CC(C)C[C@H](NC(=O)[C@@H](Cc1ccc2ccccc2c1)NC(=O)[C@H](Cc1ccc(O)cc1)NC(=O)[C@H](CO)NC(=O)[C@H](Cc1c[nH]c2ccccc12)NC(=O)[C@H](Cc1cnc[nH]1)NC(=O)[C@@H]1CCC(=O)N1)C(=O)N[C@@H](CCCN=C(N)N)C(=O)N1CCC[C@H]1C(=O)NCC(N)=O` [nafarelin]: 213%. Next, `O=C(CCCN1CCC(n2c(=S)[nH]c3ccccc32)CC1)c1ccc(F)cc1` [timiperone]: 379%. Next, `O=C(NCC1CCCO1)c1cc(Br)cc(Br)c1O` (stereo not given) [fursalan]: 320%; `CC/N=C(\NCC)NCCCC[C@H](NC(=O)[C@H](CC(C)C)NC(=O)[C@@H](CCCCN/C(=N/CC)NCC)NC(=O)[C@H](Cc1ccc(O)cc1)NC(=O)[C@H](CO)NC(=O)[C@@H](Cc1cccnc1)NC(=O)[C@@H](Cc1ccc(Cl)cc1)NC(=O)[C@@H](Cc1ccc2ccccc2c1)NC(C)=O)C(=O)N1CCC[C@H]1C(=O)N[C@H](C)C(N)=O` [ganirelix]: 332%; `COC1=C(OC)C(=O)C(CCCCCCCCCCO)=C(C)C1=O` [idebenone]: 162% and 212%. With `CC(C(=O)O)c1ccc2c(c1)CC(C(C)C)C2` (stereo not given) [isoprofen], the percent viability is 178%. The result for `COc1cc2nc(N(C)CCCNC(=O)C3CCCO3)nc(N)c2cc1OC` (stereo not given) [alfuzosin] reads 162% and 323%. The result for `Cc1c(-c2ccc(O)cc2)n(Cc2ccc(OCCN3CCCCCC3)cc2)c2ccc(O)cc12` [bazedoxifene] reads 245%; that for `CCOC(=O)N1CCC(=C2c3ccc(Cl)cc3CCc3cccnc32)CC1` [loratadine], 290% and 110%. Next, `C[C@H]1C[C@H]2[C@@H]3CCC4=CC(=O)C=C[C@]4(C)[C@@]3(F)[C@@H](O)C[C@]2(C)[C@@]1(O)C(=O)COP(=O)(O)O`: 203%; `O=C(O)CCCCCCCC(=O)O` [azelaic acid]: 189%. For `COc1c(C)c2c(c(O)c1C/C=C(\C)CCC(=O)OCCN1CCOCC1)C(=O)OC2` [Mycophenolate mofetil], the percent viability worked out at 12.6%.

Consider `Cc1cc(=O)c(C(=O)N[C@@H](C(=O)N[C@@H]2C(=O)N3C(C(=O)O)=C(CSc4nnnn4C)CS[C@H]23)c2ccc(O)cc2)c[nH]1`, for which the percent viability came to 199%. The result for `CC(C)(Oc1ccc(Cl)cc1)C(=O)O` [calcium clofibrate] reads 219%. On to `O=C(O[C@@H]1C[C@@H]2C[C@H]3C[C@H](C1)N2CC3=O)c1c[nH]c2ccccc12` [dolasetron], for which the percent viability came to 133%. For the compound `CCCCC(CC)COC(=O)C(C#N)=C(c1ccccc1)c1ccccc1` (stereo not given) [octocrilene], the percent viability worked out at 16.4%. In the case of `O=C(OCCOCCN1CCCCC1)N1c2ccccc2Sc2cccnc21` [pipazetate], the percent viability worked out at 62.6%. In the case of `CN1CCC[C@@H]1CCO[C@](C)(c1ccccc1)c1ccc(Cl)cc1`, the percent viability stood at 173%.

For `CCO[C@@H](Cc1ccc(OCCc2ccc(OS(C)(=O)=O)cc2)cc1)C(=O)O` [tesaglitazar], the percent viability amounted to 183%. Take `O=C1C(=O)c2ccccc2C(O)=C1C1CCC(c2ccc(Cl)cc2)CC1` (stereo not given): the percent viability worked out at 167%. Next, `CCCCCN(CCCCC)C(=O)C(CCC(=O)O)NC(=O)c1ccc(Cl)c(Cl)c1` (stereo not given) [lorglumide]: 290% and 178%. The result for `C[C@]12CCC(=O)C=C1CC[C@@H]1[C@@H]2[C@@H](O)C[C@@]2(C)[C@H]1CC[C@]2(O)C(=O)CS` [tixocortol] reads 290%; that for `N=C(N)NCCC[C@@H](NC(=O)[C@@H]1CCCN1C(=O)[C@@H]1CSSCCC(=O)N[C@@H](Cc2ccc(O)cc2)C(=O)N[C@@H](Cc2ccccc2)C(=O)N[C@@H](CCC(N)=O)C(=O)N[C@@H](CC(N)=O)C(=O)N1)C(=O)NCC(N)=O`, 288%. The result for `COCCCC/C(=N\OCCN)c1ccc(C(F)(F)F)cc1` [fluvoxamine] reads 268%; that for `CC(=O)[C@@]1(C)CC[C@H]2[C@@H]3C=C(C)C4=CC(=O)CC[C@]4(C)[C@H]3CC[C@@]21C` [medrogestone], 157%.

As for `Nc1ccc(S(=O)(=O)Nc2nccs2)cc1` [sulfathiazole], the percent viability was found to be 145%. Next, `CC[N+](CC)(CC(=O)Nc1c(C)cccc1C)Cc1ccccc1` [denatonium benzoate]: 241%; `COc1cc(NS(=O)(=O)c2ccc(N)cc2)ncn1` [sulfamonomethoxine]: 228%. Turning to `CC1=C(C(=O)O)N2C(=O)[C@@H](NC(=O)[C@H](N)C3=CCC=CC3)[C@H]2SC1` [cefradine], the percent viability turned out to be 127%.

Take `CO/N=C(\C(=O)N[C@@H]1C(=O)N2C(C(=O)O)=C(C)CS[C@H]12)c1csc(N)n1` [cefetamet]: the percent viability is 73.3%.

In the case of `COc1ccc2c3c1O[C@H]1C[C@@H](O)C=C[C@@]31CCN(C)C2` [galantamine], the percent viability is 235% and 152%. Turning to `Cc1onc(-c2ccccc2)c1C(=O)N[C@@H]1C(=O)N2[C@@H]1SC(C)(C)[C@@H]2C(=O)O` [Oxacillin], the percent viability turned out to be 131%. Regarding `CC(C)(C)NC[C@H](O)COc1ccccc1C1CCCC1`, the percent viability turned out to be 116%.
